# Assay results taken from PubChem BioAssay AID206 (DTP/NCI, 2004).
# The list shows only some results of the screen, not a fair sample: it gathers tests that were run many times, whatever their T/C, doses with no T/C, and many T/C values between a quarter and a half above the control. Other doses and runs of a compound stand elsewhere. T/C: endpoint of the treated group in % of that of the vehicle group. Schedules are NCI's codes, read here as Q, the interval in days (D) or hours (H), X, the number of doses. Some T/C values are followed by the survivors on the day toxicity was checked, most often the fifth; where none is given, no animal had died by that day. Some doses have a count of surviving animals in place of a T/C: the source files T/C as zero there, which appears to mark a toxic dose or a test without result, not a measured value. Survivors were counted at the toxicity check, usually on the fifth day, unless a day is given; later deaths do not show. Some molecules as drawn cover several salts, stereoisomers or complexes of the source; a dose is that of the sample tested.
# Test system: nude mice, HT29 intrarenal xenograft, tumor weight T/C
# Test: NCI In Vivo Anticancer Drug Screen. Data for tumor model HT29;CX-1 Human Adenocarcinoma (MER+) (intrarenal inoculation) in NU/NU Swiss (nude) mice
# Conditions: T/C endpoint: mean tumor weight change, higher T/C = larger tumour
# Protocol: The antitumor activity of compounds was measured in mice bearing transplantable tumors. Survival or tumor size were measured and the results are expressed as the measurement made in the treated group (T) divided by the measurement made in the vehicle treated control group (C). The tumor model used in this assay is HT29;CX-1 Human Adenocarcinoma (MER+) (intrarenal inoculation) in NU/NU Swiss (nude) mice
# [1] = dose: 300.0 mg/kg/injection, schedule: Q04DX004 (sc), vehicle: saline with Tween-80, evaluated on day 15
# [2] = dose: 600.0 mg/kg/injection, schedule: Q04DX004 (sc), vehicle: water
# [3] = dose: 300.0 mg/kg/injection, schedule: Q04DX004 (sc), vehicle: Klucel (hydroxypropylcellulose) (HPC), evaluated on day 15
compound,measurement,setting,value
Cc1cc(NCCCCCCNc2cc(C)nc3cc(N(C)C)ccc23)c2ccc(N(C)C)cc2n1,survivor count,"dose: 150.0 mg/kg/injection, schedule: Q04DX004 (sc), vehicle: distilled water + Tween-80 + alcohol",3 of 6 on day 15
same,survivor count,"dose: 300.0 mg/kg/injection, schedule: Q04DX004 (sc), vehicle: distilled water + Tween-80 + alcohol",2 of 6 on day 15
Brc1c(NC2=NCCN2)ccc2nccnc12,survivor count,"dose: 800.0 mg/kg/injection, schedule: Q04DX004 (sc), vehicle: saline",1 of 6 on day 15
same,survivor count,"dose: 1600.0 mg/kg/injection, schedule: Q04DX004 (sc), vehicle: saline",0 of 6 on day 15
C[n+]1c(/C=N/NC(N)=S)ccc2ccccc21,T/C,[1],129 % of control
C[Si](C)(C)n1nnn(-c2ccccc2)c1=O,T/C,"dose: 150.0 mg/kg/injection, schedule: Q04DX004 (sc), vehicle: saline with Tween-80, evaluated on day 15",131 % of control
O=S(=O)(c1ccccc1)N1CN2CCN(C2)C1,survivor count,"dose: 1800.0 mg/kg/injection, schedule: Q04DX004 (sc), vehicle: saline with Tween-80",0 of 6 on day 15
COc1ccc2[nH]c3ccc4cc[n+](CCN5CCC(C6CCN(CC[n+]7ccc8ccc9[nH]c%10ccc(OC)cc%10c9c8c7)CC6)CC5)cc4c3c2c1,T/C,"dose: 75.0 mg/kg/injection, schedule: Q04DX004 (sc), vehicle: Klucel (hydroxypropylcellulose) (HPC), evaluated on day 15",147 % of control
COc1ccc(-c2csc(=[N+]3CCCCC3)s2)cc1,T/C,"dose: 3.12 mg/kg/injection, schedule: Q04DX004 (sc), vehicle: water, evaluated on day 15",148 % of control
same,survivor count,"dose: 25.0 mg/kg/injection, schedule: Q04DX004 (sc), vehicle: water",1 of 6 on day 15
ClCC[N+]12CC[N+](CCCl)(CC1)C2,survivor count,"dose: 400.0 mg/kg/injection, schedule: Q01DX010 (sc), vehicle: saline with Tween-80",0 of 3 on day 11
same,survivor count,[2],0 of 6 on day 15
same,survivor count,"dose: 1200.0 mg/kg/injection, schedule: Q04DX004 (sc), vehicle: water",0 of 6 on day 15
same,survivor count,"dose: 2400.0 mg/kg/injection, schedule: Q04DX004 (sc), vehicle: water",0 of 6 on day 15
Cc1ncc(CNC(=O)N(CCCl)N=O)c(N)n1,survivor count,"dose: 37.5 mg/kg/injection, schedule: Q04DX004 (sc), vehicle: saline",1 of 6 on day 15
same,survivor count,"dose: 75.0 mg/kg/injection, schedule: Q04DX004 (sc), vehicle: saline",0 of 6 on day 15
COc1ccc(CC2C(=O)NC(C)C(=O)N(C)C3C(=O)N(C)C(Cc4ccc(O)c(c4)Oc4ccc(cc4)C3O)C(=O)NC(C)C(=O)NC(C)C(=O)N2C)cc1 (stereo not given),T/C,"dose: 0.5 mg/kg/injection, schedule: Q01DX010 (sc), vehicle: saline with Tween-80, evaluated on day 11",134 % of control
same,survivor count,"dose: 4.0 mg/kg/injection, schedule: Q01DX010 (sc), vehicle: saline with Tween-80",0 of 3 on day 11
same,survivor count,"dose: 8.0 mg/kg/injection, schedule: Q01DX010 (sc), vehicle: saline with Tween-80",0 of 3 on day 11
CCN(CC)CCNc1ccc(C)c2sc3ccc(O)cc3c(=O)c12,T/C,"dose: 600.0 mg/kg/injection, schedule: Q04DX004 (sc), vehicle: saline with Tween-80, evaluated on day 15",142 % of control
O=c1[nH]c(=O)n(C2CC(O)C(CO)O2)cc1Br (stereo not given),survivor count,"dose: 4800.0 mg/kg/injection, schedule: Q04DX004 (sc), vehicle: Klucel (hydroxypropylcellulose) (HPC)",1 of 6 on day 15
Cc1cc2nc3c(=O)[nH]c(=O)nc-3n(CC(O)C(O)C(O)C(O)CO)c2cc1C (stereo not given),T/C,[1],129 % of control
C(C#CCN1CCOCC1)#CCN1CCOCC1,T/C,[3],137 % of control
COc1cc([C@@H]2c3cc4c(c(O)c3C[C@H]3COC(=O)[C@@H]32)OCO4)cc(OC)c1O,survivor count,"dose: 8.0 mg/kg/injection, schedule: Q01DX010 (sc), vehicle: saline",0 of 3 on day 11
Nc1ncnc2c1ncn2C1OC(CO)C(O)C1O (stereo not given),survivor count,"dose: 300.0 mg/kg/injection, schedule: Q04DX004 (sc), vehicle: saline",0 of 6 on day 15
O=C(O)C1CC(c2ccccc2)=NN1c1ccccc1 (stereo not given),survivor count,[2],1 of 6 on day 15
CNC(=O)n1c(N)nc(-c2ccccc2)c1-c1ccccc1,survivor count,"dose: 1200.0 mg/kg/injection, schedule: Q04DX004 (sc), vehicle: saline with Tween-80",3 of 6 on day 15
same,survivor count,"dose: 2400.0 mg/kg/injection, schedule: Q04DX004 (sc), vehicle: saline with Tween-80",3 of 6 on day 15
CNc1nc2c(N)ncnc2n1C1OC(CO)C(O)C1O (stereo not given),survivor count,"dose: 50.0 mg/kg/injection, schedule: Q04DX004 (sc), vehicle: saline",3 of 5 on day 15
same,survivor count,"dose: 100.0 mg/kg/injection, schedule: Q04DX004 (sc), vehicle: saline",2 of 6 on day 15
same,survivor count,"dose: 200.0 mg/kg/injection, schedule: Q04DX004 (sc), vehicle: saline",0 of 6 on day 15
COC(=O)C[C@](O)(CCCC(C)(C)O)C(=O)O[C@@H]1C(OC)=C[C@]23CCCN2CCc2cc4c(cc2[C@H]13)OCO4,survivor count,"dose: 2.0 mg/kg/injection, schedule: Q01DX010 (sc), vehicle: saline",0 of 3 on day 11
same,survivor count,"dose: 4.0 mg/kg/injection, schedule: Q01DX010 (sc), vehicle: saline",0 of 3 on day 11
COP12(OCCO1)SC(C(F)(F)F)=C(C(F)(F)F)S2,survivor count,"dose: 1000.0 mg/kg/injection, schedule: Q04DX004 (sc), vehicle: saline with Tween-80",3 of 6 on day 15
CO[C@@]12[C@H](COC(N)=O)C3=C(C(=O)C(C)=C(N)C3=O)N1C[C@@H]1N[C@@H]12,survivor count,"dose: 5.0 mg/kg/injection, schedule: Q04DX004 (sc), vehicle: saline",1 of 3 on day 15
same,survivor count,"dose: 6.0 mg/kg/injection, schedule: Q04DX004 (sc), vehicle: saline",0 of 6 on day 15
same,survivor count,"dose: 10.0 mg/kg/injection, schedule: Q04DX004 (sc), vehicle: saline",0 of 3 on day 15
same,survivor count,"dose: 12.0 mg/kg/injection, schedule: Q04DX003 (sc), vehicle: saline",0 of 6 on day 15
same,survivor count,"dose: 12.0 mg/kg/injection, schedule: Q04DX004 (sc), vehicle: saline",0 of 6 on day 15
same,survivor count,"dose: 24.0 mg/kg/injection, schedule: Q04DX003 (sc), vehicle: saline",0 of 6 on day 15
CN1c2c(nc(N)[nH]c2=O)NCC1CCNc1ccc(C(=O)NC(CCC(=O)O)C(=O)O)cc1 (stereo not given),survivor count,"dose: 400.0 mg/kg/injection, schedule: Q01DX010 (sc), vehicle: saline",0 of 3 on day 11
same,survivor count,"dose: 800.0 mg/kg/injection, schedule: Q01DX010 (sc), vehicle: saline",1 of 3 on day 11
same,survivor count,"dose: 1600.0 mg/kg/injection, schedule: Q01DX010 (sc), vehicle: saline",0 of 3 on day 11
OC1CCCC2CCC[N-]C12.OC1CCCC2CCC[N-]C12.[Mn+2] (stereo not given),T/C,[3],126 % of control
same,T/C,"dose: 1200.0 mg/kg/injection, schedule: Q04DX004 (sc), vehicle: Klucel (hydroxypropylcellulose) (HPC), evaluated on day 15",134 % of control [5 of 6 alive on day 15]
